PubChem BioAssay AID504808 | Drosophila RNAi Screening Center | 2011
Test: 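Genes whose loss lifts activity of an E2F-responsive reporter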 (primary screen). System: Drosophila S2 cells. Knock-down reagent: long dsRNA against Drosophila genes. Measured: 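Dual luciferase plate measurements; E2F-specific signal taken as firefly over Renilla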. Reading the numbers: E2F firefly: higher = more E2F reporter activity; Renilla normaliser: higher = more normaliser reporter signal. Active means: 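Called active if the normalised E2F reporter went up by over 50%; the cutoff is arbitrary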.
The deposit covers about 21,000 reagents; this is a random part of those that have a named target and a result. Of all reagents, 18 (0.084%) got an active call. 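Raw counts without plate normalisation, one of two replicates; the ratio scores behind the calls were not deposited.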 Reagent sequences are not shown. The record does not give: the amount of reagent, the time to read-out.

CG13743 [DRSC05139] | E2F firefly, rep 1: 1.49e5; Renilla normaliser, rep 1: 5509; Outcome: inactive
CG13743 [DRSC06414] | E2F firefly, rep 1: 1.34e5; Renilla normaliser, rep 1: 4602; Outcome: inactive
RPA3 (Replication protein A3) [DRSC19658] | E2F firefly, rep 1: 1.50e5; Renilla normaliser, rep 1: 6694; Outcome: inactive
CG1598 [DRSC06598] | E2F firefly, rep 1: 1.46e5; Renilla normaliser, rep 1: 4691; Outcome: inactive
CG6006 [DRSC13137] | E2F firefly, rep 1: 86000; Renilla normaliser, rep 1: 2607; Outcome: inactive
CG6006 [DRSC15946] | E2F firefly, rep 1: 76923; Renilla normaliser, rep 1: 4205; Outcome: inactive
smo (smoothened) [DRSC00837] | E2F firefly, rep 1: 1.02e5; Renilla normaliser, rep 1: 3998; Outcome: inactive
Obp47a (Odorant-binding protein 47a) [DRSC06255] | E2F firefly, rep 1: 1.56e5; Renilla normaliser, rep 1: 5087; Outcome: inactive
CenB1A (Centaurin beta 1A) [DRSC16923] | E2F firefly, rep 1: 1.00e5; Renilla normaliser, rep 1: 5396; Outcome: inactive
Acp65Aa (Adult cuticle protein 65Aa) [DRSC09663] | E2F firefly, rep 1: 1.04e5; Renilla normaliser, rep 1: 4014; Outcome: inactive
CG34197 (retired record) [DRSC05791] | E2F firefly, rep 1: 1.58e5; Renilla normaliser, rep 1: 5936; Outcome: inactive
CG14259 [DRSC14754] | E2F firefly, rep 1: 1.22e5; Renilla normaliser, rep 1: 6318; Outcome: inactive
Ranbp21 [DRSC19447] | E2F firefly, rep 1: 1.32e5; Renilla normaliser, rep 1: 5989; Outcome: inactive
yellow-f2 [DRSC16372] | E2F firefly, rep 1: 77957; Renilla normaliser, rep 1: 3395; Outcome: inactive
Obp93a (Odorant-binding protein 93a) [DRSC15220] | E2F firefly, rep 1: 1.47e5; Renilla normaliser, rep 1: 7947; Outcome: inactive
Or85c (Odorant receptor 85c) [DRSC16766] | E2F firefly, rep 1: 1.32e5; Renilla normaliser, rep 1: 6322; Outcome: inactive
CG13376 [DRSC17901] | E2F firefly, rep 1: 1.14e5; Renilla normaliser, rep 1: 5829; Outcome: inactive
eIF4E6 (eukaryotic translation initiation factor 4E6) [DRSC14853] | E2F firefly, rep 1: 1.31e5; Renilla normaliser, rep 1: 5605; Outcome: inactive
Hexo2 (Hexosaminidase 2) [DRSC18671] | E2F firefly, rep 1: 56356; Renilla normaliser, rep 1: 4068; Outcome: inactive
